Results as given in PubChem BioAssay AID540276 (National Center for Advancing Translational Sciences (NCATS), 2011).
Several values for one entry are separate records, joined by “and”; a condition that tells them apart may be missing. Equal entries are not always repeated. About 5,400 (1.8%) of roughly 300,000 compounds were called active. Inconclusive results, whose numbers are uncertain, are shown with a selection of clear calls. Calls follow the shape of the full dose curve; tested in HEK293 cells. Potencies of inconclusive entries are doubtful fits and often do not repeat.

Assay: qHTS for inhibitors of binding or entry into cells for Marburg Virus
Conditions: Marburg virus pseudotyped entry inhibition, cell reporter; activity change, negative = inhibition: at 37.8 µM (top of the series) unless noted
% is scaled to controls: 0 for no effect and ±100 for the full control effect; potency is read from the fitted curve at half-maximal effect.

SMILES	Potency	activity change, negative = inhibition
CCn1c(SCC(=O)NC2CCCC2)nnc1-c1ccncc1	inconclusive: 3.16 µM [activator, partial curve, poor fit]	
Cc1ccc(C)c(NC(=O)C(=O)NCCCN2CCOCC2)c1	inactive	
CCCc1nc(SCC(=O)N2c3ccccc3CC2C)c2c(C)c(C)sc2n1 (stereo not drawn)	active: 9.2 µM	
COc1ccc(N2CCN(C(=O)CSc3ncnc4c3cnn4-c3ccccc3C)CC2)cc1	inactive	
COc1ccc(OC)c(S(=O)(=O)Nc2ccc(O)c3ccccc23)c1	inconclusive: 35.5 µM [inhibitor, single point]	
O=C1C(O)=CC(=C(c2ccccc2)c2ccccc2)c2ccccc21	inconclusive: 17.8 µM [inhibitor, single point]	
O=C(OCCN1CCCCC1)c1ccccc1Cl		inactive: 17.9%
COc1cc(N=Cc2c(O)[nH]c3ccccc23)cc(OC)c1OC	inconclusive: 10 µM [inhibitor, partial curve, poor fit]	
COc1ccc(-c2c(NC(=O)c3ccco3)oc3c(C)cccc3c2=O)cc1		inactive: -0.579% [at 46.1 µM]
CCOCc1cc(CN2CCN(c3cccc(C(F)(F)F)c3)CC2)c(O)c2ncccc12	inconclusive: 35.5 µM [inhibitor, single point]	
Cc1cccc(/C=C/C(=O)c2ccc(NC3=NCCCS3)cc2)c1	inconclusive: 29.1 µM [inhibitor, single point]	
Cc1ccc(NC(=S)N(CCCN(C)C)Cc2cc3cc4c(cc3[nH]c2=O)OCO4)c(C)c1		inactive: 12.7% [at 46.1 µM]
O=C(NC1CCCC1)C(c1ccco1)N(C(=O)c1ccco1)c1ccc(F)cc1 (stereo not drawn)		inactive: -27.1% [at 46.1 µM]
O=C(N/N=C/c1cc(Br)cc(Cl)c1O)c1ccc2c(c1)OCO2	inconclusive: 10 µM [inhibitor, partial curve, poor fit]	
CC(Oc1cccc(Cl)c1)C(=O)Nc1nc(-c2ccccn2)cs1 (stereo not drawn)	inconclusive: 11.2 µM [inhibitor, partial curve, poor fit]	
COc1ccc(N2CC(C(=O)Nc3nccs3)CC2=O)cc1 (stereo not drawn)		inactive: 28.1%
CCOc1ccc(NC(=O)CN(C)CC(=O)Nc2ccc(Br)cc2F)cc1OCC	inconclusive: 5.62 µM [activator, single point]	
CC(=O)Nc1ccc(NC(=O)CS(=O)(=O)c2cn(CC(=O)N3CCCCC3)c3ccccc23)cc1		inactive: 8.57%
Cc1ccc(S(=O)(=O)Oc2ccccc2/C=N/NC(=O)c2nn(C)cc2[N+](=O)[O-])cc1	inconclusive: 35.5 µM [inhibitor, single point]	
Cc1ccc(NC2=C(Cl)C(=O)OC2OC(=O)c2ccc(C)cc2)cc1 (stereo not drawn)	inconclusive: 3.98 µM [inhibitor, partial curve, poor fit]	
Cn1ccc(C(=O)N/N=C/c2ccccc2[N+](=O)[O-])n1	inconclusive: 6.31 µM [activator, single point]	
CNC(=O)CN1C(=O)COc2ccc(S(=O)(=O)N3CCCCCC3)cc21	inactive and inconclusive: 2.24 µM [inhibitor, partial curve, poor fit]	
Nc1nc(Nc2ccccc2)nc(NCCO)c1[N+](=O)[O-]		inactive: 1.16%

SMILES	Potency	activity change, negative = inhibition
COc1cccc2sc(/N=C/N(C)C)nc12	inconclusive: 4.47 µM [activator, partial curve]	
COc1cc(C(C)=O)ccc1OCC(=O)Nc1cc(C)on1	inconclusive: 0.891 µM [activator, full curve, poor fit]	
O=c1c(/C=N/O)coc2ccc3ccccc3c12	inconclusive: 3.98 µM [activator, partial curve, poor fit]	
Cc1cc(C(=O)Nc2c(F)cc(F)cc2Br)no1		inactive: 10%
CCOC(=O)N1CCc2c(sc3c2c(=O)n(Cc2ccccc2)c(=O)n3CC(=O)Nc2ccc(F)cc2)C1	inconclusive: 10 µM [inhibitor, partial curve, poor fit]	
CCN(CC)CCOC(=O)c1ccc(NC(=O)/C=C/c2cccs2)cc1	inconclusive: 29.1 µM [inhibitor, single point]	
O=C(CCCN1C(=O)/C(=C/c2cccc(Br)c2)SC1=S)Nc1ccccn1	inconclusive: 25.9 µM [inhibitor, single point]	
O=C(O)CC(NC(=O)/C(=C/c1ccccc1)NC(=O)c1ccccc1)c1ccccc1 (stereo not drawn)	inconclusive: 7.08 µM [inhibitor, partial curve, poor fit]	
CC(C)c1ccc(NC(=O)COC(=O)CCC(=O)c2cccs2)cc1	inconclusive: 35.5 µM [activator, single point]	
Cc1nc(NC(C)c2ccccc2)c2c3c(sc2n1)CCC3 (stereo not drawn)	inconclusive: 16.4 µM [inhibitor, single point]	
O=C(CCNc1cc(Cl)cc(Cl)c1)c1cccs1		inactive: -12.8%
COc1ccc(-n2c(C)c(C)c3c(N)ncnc32)cc1		inactive: -1.01% [at 46.1 µM]
CCOC(=O)c1nn(-c2ccccc2)c(=O)cc1OCC(=O)Nc1cc(C)ccc1C	inconclusive: 6.31 µM [inhibitor, single point]	
Cc1cccc(N(CC(=O)NC2CCCC2)C(=O)CS(=O)CC(=O)Nc2ccc3c(c2)OCO3)c1C (stereo not drawn)	inconclusive: 0.398 µM [activator, full curve]	
Cc1ccccc1-n1nc(C)c2c1NC(=O)CSC2c1ccc(Cl)cc1 (stereo not drawn)	inconclusive: 15.8 µM [activator, partial curve, poor fit]	
CCCCSc1n[nH]c(=S)c2nc[nH]c12	inconclusive: 0.562 µM [activator, full curve, poor fit]	
COCCCNc1ncnc2ccc(C)cc12		inactive: -27.5%
CCOC(=O)c1c(-c2ccco2)csc1NC(=O)COC(=O)c1cnccn1		inactive: 20.5%
CC1CCN(S(=O)(=O)c2ccc(NC(=O)CN3CCCC(C)C3)cc2)CC1 (stereo not drawn)	inconclusive: 9.2 µM [inhibitor, single point]	
O=[N+]([O-])c1ccc2nc(NCCCO)nc(-c3ccccc3)c2c1	inconclusive: 0.447 µM [activator, partial curve, poor fit]	
O=C1CCC(=O)N1c1ccc(-c2nc3ccccc3s2)cc1	inconclusive: 12.6 µM [activator, partial curve]	
O=C(NCC1CCCO1)c1cccc(Oc2ccc([N+](=O)[O-])cc2)c1 (stereo not drawn)		inactive: -14.9%
COc1ccc(C(C(=O)NC2CCCC2)N(C(=O)c2ccco2)c2cc3c(cc2C(C)=O)OCO3)cc1OC (stereo not drawn)		inactive: 7.4% [at 46.1 µM]

SMILES	Potency	activity change, negative = inhibition
CCOc1ccc(NC(=O)c2cc(SC)ccc2Cl)cc1	inconclusive: 0.501 µM [activator, full curve, poor fit]	
COc1cc(C)c(Br)cc1S(=O)(=O)N1CCCC1	inconclusive: 12.6 µM [activator, single point]	
CN(C)c1ccc(/C=C2\C(=O)NC(=O)N(Cc3ccc(F)cc3)C2=O)cc1		inactive: 3.69% [at 46.1 µM]
COc1ccc(NC(=O)C2CCCO2)cc1 (stereo not drawn)	inconclusive: 1.16 µM [inhibitor, single point]	
CCN(CC)S(=O)(=O)c1ccc(N=Nc2c(C)[nH]n(C(N)=S)c2=O)cc1	inconclusive: 15.8 µM [activator, partial curve, poor fit]	
COc1ccc(-c2cc(C(F)(F)F)nc(N3CCCCC3)n2)cc1OC	inconclusive: 20.6 µM [inhibitor, single point]	
CN1CCc2nc3sc(C(=O)c4ccc(F)cc4)c(N)c3cc2C1	inconclusive: 5.01 µM [activator, single point]	
CCC(C)S(=O)(=O)c1oc(-c2cccs2)nc1S(=O)(=O)c1ccccc1 (stereo not drawn)	inconclusive: 15.8 µM [inhibitor, single point]	
CCOC(=O)C(C(=O)OCC)C1OC(=O)c2cc3c(cc21)C(=O)OC3C(C(=O)OCC)C(=O)OCC (stereo not drawn)	inconclusive: 31.6 µM [inhibitor, single point]	
COc1ccc(/C=C/C=C2C(=O)NC(=S)NC2=O)cc1	inconclusive: 7.08 µM [inhibitor, single point]	
O=C(Nc1ccc(F)cc1F)NC1CCCCCCC1		inactive: 5.76% [at 46.1 µM]
CC(C)Oc1ccc(CN2CCCC(CO)(Cc3ccccc3)C2)cc1CO (stereo not drawn)	inconclusive: 35.5 µM [inhibitor, partial curve, poor fit]	
Cc1ccc(C2=NN(C(=O)CSc3nc4ncc(Cl)cc4[nH]3)C(c3ccco3)C2)cc1 (stereo not drawn)		inactive: -3.25% [at 46.1 µM]
Cc1onc(-c2ccccc2)c1-c1n[nH]c(=S)n1-c1ccc(C(=O)O)cc1	inconclusive: 3.55 µM [activator, single point]	
CCCC(=O)Nc1sc(Cc2ccccc2)c(C)c1C(N)=O	inconclusive: 1.58 µM [inhibitor, full curve, poor fit]	
COc1cc(SC#N)ccc1N=Cc1c(C)[nH]n(-c2ccc(C)c(C)c2)c1=O	inconclusive: 12.6 µM [inhibitor, single point]	
Cc1cccc(N2CCN(C(=O)C3CCN(C(=O)c4cc5sccc5n4C)CC3)CC2C)c1 (stereo not drawn)	inconclusive: 35.5 µM [inhibitor, single point]	
COc1ccc(CN(C)c2ccc(-c3nc(-c4ccc(OC)c(OC)c4)no3)cc2[N+](=O)[O-])cc1		inactive: 18.5% [at 46.1 µM]
O=C1c2ccccc2C(Nc2ccc3nc(-c4cccnc4)[nH]c3c2)N1Cc1ccco1 (stereo not drawn)	inactive	
O=C(O)c1ccccc1-c1nc2ccccc2[nH]1	inconclusive: 17.8 µM [activator, single point]	
Clc1cccc(CNc2nc(-c3cccnc3)nc3ccccc23)c1		inactive: -28.8% [at 46.1 µM]
N#Cc1nc(-c2cccc(Cl)c2)oc1NCc1cccnc1	inconclusive: 29.1 µM [inhibitor, single point]	

Random excerpt: three entries already listed.
SMILES	Potency	activity change, negative = inhibition
COc1ccc(CN(C)c2ccc(-c3nc(-c4ccc(OC)c(OC)c4)no3)cc2[N+](=O)[O-])cc1		inactive: 18.5% [at 46.1 µM]
O=C(O)c1ccccc1-c1nc2ccccc2[nH]1	inconclusive: 17.8 µM [activator, single point]	
O=C(Nc1ccc(F)cc1F)NC1CCCCCCC1		inactive: 5.76% [at 46.1 µM]
